Library screen at single concentrations

Source: ChEMBL document CHEMBL3988442, “University of Dundee, Small-Polar-MMV Screening Library” (2021).

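Assay of Toxoplasma gondii numbers, read through their beta-galactosidase reporter with a colour substrate. Compounds at 50 µM. Higher reads as fewer parasites (inferred from which compounds were picked for retests). About 18,000 compounds were tested under these conditions; 0.94% (about 170) showed 50% or more at least once.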

Each number is a percent effect as filed. The record does not define 0% and 100%; most values in the screen are far below 50% and negative numbers occur (in some assays of this library far below -100). Compounds were drawn at random from those tested, without regard to their results.

Result for CCN(CCn1cccn1)C(=O)[C@H](N)c1ccccc1 was 3.591%.
Result for C=C(C)CN1CCN(C(=O)N(C)C)CC1 was 4.264%.
Result for CCc1ccsc1C(=O)NCCCN1CCN(C)CC1 was 4.051%.
Result for COC(=O)c1ccc(CCN)c(OC)c1 was 13.67%.
Result for CCOC1CCCN(CCOC(=O)N(C)C)C1 (centres unmarked) was -5.507%.
Result for O=C(Nc1cccc(Cl)c1)N1CCNCC1 was 5.977%.
Result for COc1ccccc1C(N)c1ccccn1 (centres unmarked) was 3.886%.
Result for O=C1CCN(Cc2ccc(OC(F)F)c(Cl)c2)CCN1 was -0.4782%.
Result for O=C(NCCc1c[nH]cn1)c1ccncc1 was -4.26%.
Result for NCCc1nnc2n1CCC2 was -0.9962%.
Result for CCC(C)(O)CNC(=O)CCOC(C)C (centres unmarked) was 6.877%.
Result for COc1ccc(NC(=O)N2CCCC(N)C2)c(C)c1 (centres unmarked) was 4.63%.
Result for COCCn1cnc2c1c(=O)[nH]c(=O)n2CC(C)C was -5.311%.
Result for Cc1ccc(F)cc1C(=O)N[C@@H]1CCNC[C@H]1O was 19.16%.
Result for COCCN1CCCN(C(=O)c2sccc2Br)CC1 was 5.427%.
Result for CCC(C(=O)N(C)Cc1cc[nH]n1)N1CCCC1 (centres unmarked) was -3.86%.
Result for CCOc1ccc(NC(=O)CN2CCNCC2)cc1 was 1.404%.
Result for CCCS(=O)(=O)N1CCC(N)CC1 was 4.388%.
Result for Cn1cc(C#N)cc1C(=O)NCC(=O)N1CCNCC1 was -7.24%.
Result for OCC1(O)CCCN(Cc2ccc(F)c(F)c2)CC1 (centres unmarked) was -13.11%.
Result for Cn1ccnc1CN1CCCSCC1 was 10.46%.
Result for CC(C)CCN1CCN(C(=O)c2nccnc2N)CC1 was 0.2706%.
Result for C[C@@H](N)c1ccc(F)cn1 was 7.493%.
Result for CS(=O)(=O)NCC1CCCCC1 was 1.017%.
Result for COC1CCCNC1 (centres unmarked) was -0.4394%.
Result for O=C(N[C@@H]1COCC[C@H]1O)C1(CO)CC1 was 2.303%.
Result for CN(C)C(CNC(=O)c1ncccc1O)c1ccco1 (centres unmarked) was 0.743%.
Result for Cn1cc(C(N)CN)cn1 (centres unmarked) was 3.023%.
Result for Cc1n[nH]c(SCCN)n1 was 7.335%.

Some entries from above, unchanged:

{"structure": "O=C(NCCc1c[nH]cn1)c1ccncc1", "Percent Effect": -4.26}
{"structure": "COCCN1CCCN(C(=O)c2sccc2Br)CC1", "Percent Effect": 5.427}